# Data as given in ChEMBL document CHEMBL1132992, “Cyclin-dependent kinase inhibition by new C-2 alkynylated purine derivatives and molecular structure of a CDK2-inhibitor complex” (J Med Chem, 2000).
# Amino acid sequences for entries named in this document (tags omitted).
# UniProt O95067, whole entry: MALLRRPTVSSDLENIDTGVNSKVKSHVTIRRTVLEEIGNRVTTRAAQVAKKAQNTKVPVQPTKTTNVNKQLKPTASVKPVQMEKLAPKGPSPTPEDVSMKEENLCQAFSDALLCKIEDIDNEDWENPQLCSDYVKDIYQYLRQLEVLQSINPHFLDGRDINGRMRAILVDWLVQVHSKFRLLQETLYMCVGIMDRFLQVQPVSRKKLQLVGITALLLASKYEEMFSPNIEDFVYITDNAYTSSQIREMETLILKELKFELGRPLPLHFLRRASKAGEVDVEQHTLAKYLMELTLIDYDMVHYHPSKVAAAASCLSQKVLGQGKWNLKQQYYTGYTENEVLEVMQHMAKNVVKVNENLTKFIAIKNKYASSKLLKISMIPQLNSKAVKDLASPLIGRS
# UniProt P06493, whole entry: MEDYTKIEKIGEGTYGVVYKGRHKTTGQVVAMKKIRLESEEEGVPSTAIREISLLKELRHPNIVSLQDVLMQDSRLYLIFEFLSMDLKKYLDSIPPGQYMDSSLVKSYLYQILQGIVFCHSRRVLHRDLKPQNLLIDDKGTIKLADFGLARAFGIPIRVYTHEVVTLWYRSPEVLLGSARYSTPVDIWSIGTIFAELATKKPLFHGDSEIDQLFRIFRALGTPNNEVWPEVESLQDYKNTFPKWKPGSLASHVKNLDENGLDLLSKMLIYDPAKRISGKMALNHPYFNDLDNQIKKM
# UniProt P14635, whole entry: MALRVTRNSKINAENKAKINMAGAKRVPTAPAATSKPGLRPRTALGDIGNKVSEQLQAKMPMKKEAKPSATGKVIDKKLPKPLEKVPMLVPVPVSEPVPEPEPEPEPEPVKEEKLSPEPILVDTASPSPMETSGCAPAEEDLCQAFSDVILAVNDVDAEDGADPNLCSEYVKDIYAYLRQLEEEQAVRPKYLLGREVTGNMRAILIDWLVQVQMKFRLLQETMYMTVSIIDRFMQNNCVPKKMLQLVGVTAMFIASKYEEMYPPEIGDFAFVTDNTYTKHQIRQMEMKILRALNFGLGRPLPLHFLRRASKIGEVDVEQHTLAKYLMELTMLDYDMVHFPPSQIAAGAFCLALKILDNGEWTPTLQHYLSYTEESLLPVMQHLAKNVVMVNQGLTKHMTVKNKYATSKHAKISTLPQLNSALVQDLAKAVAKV
# UniProt Q8WWL7, whole entry: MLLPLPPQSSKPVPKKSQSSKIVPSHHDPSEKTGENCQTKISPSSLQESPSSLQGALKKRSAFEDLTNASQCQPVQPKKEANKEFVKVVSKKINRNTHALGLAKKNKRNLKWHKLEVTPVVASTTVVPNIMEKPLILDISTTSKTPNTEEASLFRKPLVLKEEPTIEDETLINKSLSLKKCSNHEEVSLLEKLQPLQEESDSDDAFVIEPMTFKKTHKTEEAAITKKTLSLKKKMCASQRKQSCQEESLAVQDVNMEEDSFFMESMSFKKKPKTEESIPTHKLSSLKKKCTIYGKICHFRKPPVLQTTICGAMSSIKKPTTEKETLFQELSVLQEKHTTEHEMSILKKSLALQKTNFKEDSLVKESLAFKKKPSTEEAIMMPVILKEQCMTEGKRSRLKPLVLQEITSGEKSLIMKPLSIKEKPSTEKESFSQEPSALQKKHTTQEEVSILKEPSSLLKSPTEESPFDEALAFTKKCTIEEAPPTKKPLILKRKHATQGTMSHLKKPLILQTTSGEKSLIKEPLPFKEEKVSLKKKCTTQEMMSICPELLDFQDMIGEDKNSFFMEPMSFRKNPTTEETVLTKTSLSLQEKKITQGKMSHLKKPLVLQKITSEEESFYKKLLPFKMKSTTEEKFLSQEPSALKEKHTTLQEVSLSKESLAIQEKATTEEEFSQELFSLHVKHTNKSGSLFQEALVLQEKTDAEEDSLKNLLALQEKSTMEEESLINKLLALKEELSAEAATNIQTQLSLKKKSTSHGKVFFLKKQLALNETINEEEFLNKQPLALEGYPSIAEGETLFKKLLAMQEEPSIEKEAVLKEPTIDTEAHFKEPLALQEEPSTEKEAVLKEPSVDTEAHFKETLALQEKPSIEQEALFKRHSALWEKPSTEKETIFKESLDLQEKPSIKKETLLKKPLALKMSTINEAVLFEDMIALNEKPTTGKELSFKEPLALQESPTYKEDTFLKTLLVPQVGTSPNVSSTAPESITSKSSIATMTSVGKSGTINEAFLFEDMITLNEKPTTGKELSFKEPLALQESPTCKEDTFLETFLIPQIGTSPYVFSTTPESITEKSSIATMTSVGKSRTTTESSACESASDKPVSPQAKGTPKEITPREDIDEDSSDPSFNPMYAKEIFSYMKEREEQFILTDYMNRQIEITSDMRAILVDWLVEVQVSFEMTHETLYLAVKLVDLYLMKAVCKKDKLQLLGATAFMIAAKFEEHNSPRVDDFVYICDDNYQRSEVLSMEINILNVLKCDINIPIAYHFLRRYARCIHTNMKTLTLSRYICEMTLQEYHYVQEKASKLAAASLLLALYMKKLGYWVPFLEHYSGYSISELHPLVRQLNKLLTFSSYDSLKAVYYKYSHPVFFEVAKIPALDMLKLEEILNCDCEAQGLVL
# Molecular target: Cyclin-dependent kinase 1/cyclin B (Homo sapiens, UniProt O95067+P06493+P14635+Q8WWL7)
compound,measurement,value
CCn1cnc2c(Nc3cccc(Cl)c3)nc(NC3CCC(O)CC3N)nc21 (stereo unspecified),IC50,25 nM
